The record followed here is article PMC4896102, “Biosynthesis of the polymeric gel-forming mucin MUC5B” (American Journal of Physiology - Lung Cellular and …, 2016).

The chains behind the UniProt entries cited, without tags or fusion partners. Residues count along the entry.
UniProt Q9HC84, residues 26-5762: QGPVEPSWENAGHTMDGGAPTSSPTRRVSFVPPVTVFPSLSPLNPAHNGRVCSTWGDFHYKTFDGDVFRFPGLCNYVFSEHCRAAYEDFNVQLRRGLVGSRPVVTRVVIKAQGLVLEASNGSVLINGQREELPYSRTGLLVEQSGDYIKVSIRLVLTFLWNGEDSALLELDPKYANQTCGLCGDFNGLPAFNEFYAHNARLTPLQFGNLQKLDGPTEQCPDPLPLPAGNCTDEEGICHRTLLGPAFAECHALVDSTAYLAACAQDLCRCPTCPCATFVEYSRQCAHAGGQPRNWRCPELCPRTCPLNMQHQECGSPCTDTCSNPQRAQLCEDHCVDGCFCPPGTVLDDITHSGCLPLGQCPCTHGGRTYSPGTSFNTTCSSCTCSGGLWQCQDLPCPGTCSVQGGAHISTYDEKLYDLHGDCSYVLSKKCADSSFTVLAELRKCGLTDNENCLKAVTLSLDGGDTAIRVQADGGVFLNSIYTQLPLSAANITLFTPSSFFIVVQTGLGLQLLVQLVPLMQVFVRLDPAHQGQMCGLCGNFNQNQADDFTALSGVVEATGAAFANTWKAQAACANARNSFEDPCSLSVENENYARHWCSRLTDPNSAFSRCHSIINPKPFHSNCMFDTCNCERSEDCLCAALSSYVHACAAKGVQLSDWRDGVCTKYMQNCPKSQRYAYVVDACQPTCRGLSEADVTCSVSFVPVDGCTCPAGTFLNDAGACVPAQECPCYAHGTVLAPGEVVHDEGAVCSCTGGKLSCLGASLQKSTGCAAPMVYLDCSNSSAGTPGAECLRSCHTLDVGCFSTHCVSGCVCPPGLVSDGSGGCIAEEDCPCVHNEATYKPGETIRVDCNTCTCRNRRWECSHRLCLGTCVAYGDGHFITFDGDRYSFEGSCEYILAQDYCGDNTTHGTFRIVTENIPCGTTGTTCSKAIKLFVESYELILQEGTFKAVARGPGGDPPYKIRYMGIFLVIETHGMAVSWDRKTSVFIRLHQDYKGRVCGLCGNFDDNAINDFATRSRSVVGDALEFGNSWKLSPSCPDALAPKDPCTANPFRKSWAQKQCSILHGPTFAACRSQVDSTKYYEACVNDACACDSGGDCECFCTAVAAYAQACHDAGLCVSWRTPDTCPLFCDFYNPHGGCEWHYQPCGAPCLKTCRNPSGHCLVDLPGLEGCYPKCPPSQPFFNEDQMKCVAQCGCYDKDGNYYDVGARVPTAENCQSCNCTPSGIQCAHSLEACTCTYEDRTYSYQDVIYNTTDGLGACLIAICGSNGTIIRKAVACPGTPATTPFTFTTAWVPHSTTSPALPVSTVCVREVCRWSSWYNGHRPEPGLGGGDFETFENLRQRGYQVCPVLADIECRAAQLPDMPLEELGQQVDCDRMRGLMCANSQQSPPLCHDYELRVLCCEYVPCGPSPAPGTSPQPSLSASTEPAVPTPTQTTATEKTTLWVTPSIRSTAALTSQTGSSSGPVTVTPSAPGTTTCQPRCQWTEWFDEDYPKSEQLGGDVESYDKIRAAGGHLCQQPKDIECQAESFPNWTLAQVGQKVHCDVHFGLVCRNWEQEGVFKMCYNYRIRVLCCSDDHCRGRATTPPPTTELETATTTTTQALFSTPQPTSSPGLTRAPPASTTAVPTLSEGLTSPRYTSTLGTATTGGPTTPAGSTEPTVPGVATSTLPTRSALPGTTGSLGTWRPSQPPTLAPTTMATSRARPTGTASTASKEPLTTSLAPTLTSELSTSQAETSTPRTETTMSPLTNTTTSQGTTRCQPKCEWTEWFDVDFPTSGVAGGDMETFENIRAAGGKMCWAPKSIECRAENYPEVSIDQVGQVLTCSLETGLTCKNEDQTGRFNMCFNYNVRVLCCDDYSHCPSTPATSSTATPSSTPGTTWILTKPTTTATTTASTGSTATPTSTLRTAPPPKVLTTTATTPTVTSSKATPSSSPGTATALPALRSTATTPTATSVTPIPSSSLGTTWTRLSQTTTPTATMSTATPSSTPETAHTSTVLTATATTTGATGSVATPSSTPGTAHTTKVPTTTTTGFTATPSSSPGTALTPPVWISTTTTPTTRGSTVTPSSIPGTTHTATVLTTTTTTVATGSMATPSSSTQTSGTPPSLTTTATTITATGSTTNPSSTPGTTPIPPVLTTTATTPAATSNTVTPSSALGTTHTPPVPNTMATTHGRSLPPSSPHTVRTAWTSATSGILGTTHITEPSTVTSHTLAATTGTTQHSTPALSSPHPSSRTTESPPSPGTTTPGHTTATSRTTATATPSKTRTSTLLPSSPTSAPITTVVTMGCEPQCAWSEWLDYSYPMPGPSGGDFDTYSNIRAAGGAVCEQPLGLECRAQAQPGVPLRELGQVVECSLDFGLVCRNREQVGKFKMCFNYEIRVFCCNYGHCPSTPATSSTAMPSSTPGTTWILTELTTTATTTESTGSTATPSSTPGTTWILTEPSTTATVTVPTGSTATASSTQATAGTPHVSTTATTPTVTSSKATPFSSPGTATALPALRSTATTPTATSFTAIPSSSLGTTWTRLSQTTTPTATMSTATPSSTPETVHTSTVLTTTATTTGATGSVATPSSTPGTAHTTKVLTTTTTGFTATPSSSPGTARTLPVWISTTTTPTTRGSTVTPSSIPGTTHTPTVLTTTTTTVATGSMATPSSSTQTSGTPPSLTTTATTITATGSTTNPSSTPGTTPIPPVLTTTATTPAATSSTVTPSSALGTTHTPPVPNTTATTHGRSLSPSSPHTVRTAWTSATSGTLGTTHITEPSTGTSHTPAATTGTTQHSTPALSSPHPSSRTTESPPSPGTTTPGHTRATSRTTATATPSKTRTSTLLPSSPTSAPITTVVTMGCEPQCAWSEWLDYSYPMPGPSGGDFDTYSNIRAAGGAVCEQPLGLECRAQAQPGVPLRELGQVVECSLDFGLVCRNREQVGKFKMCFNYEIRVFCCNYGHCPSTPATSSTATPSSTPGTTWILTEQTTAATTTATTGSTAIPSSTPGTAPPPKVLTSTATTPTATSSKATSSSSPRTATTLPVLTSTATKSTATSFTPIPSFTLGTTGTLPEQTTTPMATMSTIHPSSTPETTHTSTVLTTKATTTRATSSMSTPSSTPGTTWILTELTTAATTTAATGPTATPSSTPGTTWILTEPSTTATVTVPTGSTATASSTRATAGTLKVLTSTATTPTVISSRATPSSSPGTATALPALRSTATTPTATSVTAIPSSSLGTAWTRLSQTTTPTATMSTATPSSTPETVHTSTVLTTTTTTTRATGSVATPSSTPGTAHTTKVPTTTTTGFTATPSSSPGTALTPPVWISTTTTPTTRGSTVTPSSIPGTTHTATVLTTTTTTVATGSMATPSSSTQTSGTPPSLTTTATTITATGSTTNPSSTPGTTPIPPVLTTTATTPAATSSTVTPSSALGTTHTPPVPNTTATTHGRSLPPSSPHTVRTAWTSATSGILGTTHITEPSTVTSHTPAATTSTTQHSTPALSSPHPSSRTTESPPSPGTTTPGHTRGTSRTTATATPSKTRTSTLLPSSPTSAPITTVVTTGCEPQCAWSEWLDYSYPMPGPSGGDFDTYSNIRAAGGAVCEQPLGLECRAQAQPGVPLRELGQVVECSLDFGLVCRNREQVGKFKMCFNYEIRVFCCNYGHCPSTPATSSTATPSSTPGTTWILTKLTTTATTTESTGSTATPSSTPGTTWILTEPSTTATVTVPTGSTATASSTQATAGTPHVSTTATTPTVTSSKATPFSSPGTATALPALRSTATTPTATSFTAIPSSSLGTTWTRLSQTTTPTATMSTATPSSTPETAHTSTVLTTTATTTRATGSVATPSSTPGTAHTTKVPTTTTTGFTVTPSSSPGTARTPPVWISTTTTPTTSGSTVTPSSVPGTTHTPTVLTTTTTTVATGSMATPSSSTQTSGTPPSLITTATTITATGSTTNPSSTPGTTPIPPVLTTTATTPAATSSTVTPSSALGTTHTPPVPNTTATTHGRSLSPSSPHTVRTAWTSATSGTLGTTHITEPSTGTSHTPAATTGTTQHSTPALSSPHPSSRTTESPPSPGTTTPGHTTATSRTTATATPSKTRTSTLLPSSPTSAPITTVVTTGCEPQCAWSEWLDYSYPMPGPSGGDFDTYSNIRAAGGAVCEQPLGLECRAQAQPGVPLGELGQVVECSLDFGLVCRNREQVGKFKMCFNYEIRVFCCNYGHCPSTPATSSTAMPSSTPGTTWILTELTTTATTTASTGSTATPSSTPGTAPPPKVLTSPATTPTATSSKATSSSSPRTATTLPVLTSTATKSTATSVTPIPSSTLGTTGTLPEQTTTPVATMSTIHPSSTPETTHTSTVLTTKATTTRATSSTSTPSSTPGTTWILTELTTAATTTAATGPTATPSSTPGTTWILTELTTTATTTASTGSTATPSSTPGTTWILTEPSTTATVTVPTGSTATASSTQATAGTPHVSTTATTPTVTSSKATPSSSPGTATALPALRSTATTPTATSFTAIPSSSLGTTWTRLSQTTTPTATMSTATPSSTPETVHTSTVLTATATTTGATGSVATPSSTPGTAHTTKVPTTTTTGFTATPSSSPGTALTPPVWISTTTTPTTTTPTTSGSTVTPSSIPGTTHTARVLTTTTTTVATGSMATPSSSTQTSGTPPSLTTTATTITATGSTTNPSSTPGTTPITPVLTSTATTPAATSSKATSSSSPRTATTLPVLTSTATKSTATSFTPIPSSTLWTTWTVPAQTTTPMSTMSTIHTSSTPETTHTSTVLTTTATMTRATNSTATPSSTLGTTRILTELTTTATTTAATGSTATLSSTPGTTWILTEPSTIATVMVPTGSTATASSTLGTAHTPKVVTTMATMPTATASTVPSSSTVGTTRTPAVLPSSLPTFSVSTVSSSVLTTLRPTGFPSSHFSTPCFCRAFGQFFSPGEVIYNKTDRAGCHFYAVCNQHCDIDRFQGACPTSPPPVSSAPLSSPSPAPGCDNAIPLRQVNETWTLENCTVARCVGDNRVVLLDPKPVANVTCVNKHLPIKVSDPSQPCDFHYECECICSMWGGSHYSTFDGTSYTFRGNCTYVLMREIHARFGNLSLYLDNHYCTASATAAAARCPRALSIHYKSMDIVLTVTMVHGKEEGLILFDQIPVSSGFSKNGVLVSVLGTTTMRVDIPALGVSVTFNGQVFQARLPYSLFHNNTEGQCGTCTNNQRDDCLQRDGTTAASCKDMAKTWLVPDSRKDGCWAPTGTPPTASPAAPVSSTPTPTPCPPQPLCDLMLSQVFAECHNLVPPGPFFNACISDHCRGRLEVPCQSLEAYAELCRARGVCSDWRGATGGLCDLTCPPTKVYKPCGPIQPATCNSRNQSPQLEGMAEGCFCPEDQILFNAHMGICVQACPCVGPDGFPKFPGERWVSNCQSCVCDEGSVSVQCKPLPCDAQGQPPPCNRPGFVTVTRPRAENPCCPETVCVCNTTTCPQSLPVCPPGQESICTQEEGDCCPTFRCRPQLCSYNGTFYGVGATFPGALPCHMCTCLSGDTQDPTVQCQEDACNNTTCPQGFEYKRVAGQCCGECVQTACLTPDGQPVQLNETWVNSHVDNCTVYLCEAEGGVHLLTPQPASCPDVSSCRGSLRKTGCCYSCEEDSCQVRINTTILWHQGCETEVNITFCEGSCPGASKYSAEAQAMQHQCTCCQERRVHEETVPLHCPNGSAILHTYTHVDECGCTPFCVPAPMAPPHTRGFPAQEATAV

Assay [1] has as its target O-glycosylated polymeric MUC5B (human (endogenous in primary human bronchial epithelial cells)) (UniProt Q9HC84). The experiment in a line: agarose gel electrophoresis, unreduced versus reduced, with Western blot; HBEC lysates in 6 M GdmCl, unreduced or reduced with 10 mM DTT, 0.7% agarose with 0.1% SDS, blots probed with LUM5B-13 or MAN-5BI. (Immunoblotting shows a protein as a band on a membrane.)

For assay [2], the target named is non-O-glycosylated MUC5B (native polypeptide monomer and dimer) (human (endogenous in primary human bronchial epithelial cells)) (UniProt Q9HC84). The assay is described as above.
The target is the same in assay [3]. The experiment in a line: pulse-chase, immunoprecipitation and agarose gel electrophoresis; HBECs pulse labeled 15 min with [35S]methionine, chased 0-120 min; lysates immunoprecipitated with LUM5B-13, agarose gel electrophoresis, phosphoimaging.

No constants are given. Whether binding was seen depends on the method and setting. Some results given as binding are weak or reduced against the parent protein; the word gives no strength.

In the case of “O-glycosylated polymeric MUC5B (from UniProt Q9HC84 26-5762)”, the binding result in assay [1] is on record as “binds”. “non-O-glycosylated MUC5B (native polypeptide monomer and dimer) (from UniProt Q9HC84 26-5762)”: the binding entry in assay [2] and in assay [3] was “binds” each time.
